Test results published in article PMC4021451 (Journal of medicinal chemistry, 2012).

Experiments:
[1] = test system: A2780 (ovarian carcinoma) cells; assay: EZ4U viability assay in resistance models, A2780; assay type: cell-based; conditions: read-out: IC50 A2780, 96 h exposure
Outline: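 Cells were seeded at 2 × 10^3 per well and allowed to recover for 24 h. Test compound was then added in growth medium and exposed for 96 h. Viable cell proportion was read with the EZ4U kit. Media, all with 10% FBS: SW1573 and 2R120 in DMEM, A2780 and A2780/cis in RPMI 1640, P31 in MEM. Cells were grown at 37 °C in 5% CO2.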

[2] = test system: A549 (non-small-cell lung carcinoma) cells; assay: MTT cytotoxicity assay, A549 cells; assay type: cell-based, human; conditions: read-out: IC50 A549, 96 h exposure, mean ± SD
Outline: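 Cells were seeded in MEM at 1.5 × 10^3 (CH1), 4.0 × 10^3 (A549) or 2.5 × 10^3 (SW480) per well, given 24 h to resume exponential growth, then exposed to serial dilutions for 96 h. Medium was replaced with RPMI 1640 plus MTT in PBS (5 mg/mL solution) for 4 h, then DMSO. OD was read at 550 nm. At least three independent experiments were run, with triplicates per concentration.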

Question: `N.N.[Cl][Pt][Cl]` [cisplatin] was tested. Which IC50 [1] did it give?
Answer: 700 ± 20 nM

Question: And the IC50 [2]?
Answer: 1300 ± 400 nM
